# Data source: PubChem BioAssay AID504791 (Drosophila RNAi Screening Center, 2011)
# Test: 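Genes of the fly required for silencing by miRNA, siRNA or endo-siRNA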 (primary screen)
# Cells: Drosophila S2-derived reporter cells
# Knock-down reagent: long dsRNA against Drosophila genes, about 150-250 ng dsRNA per well (siRNA assay); about 80-120 ng (miRNA assay)
# Duration: about 5 days (siRNA assay); about 4 days (miRNA assay)
# Treatment: copper sulfate induction of reporters: 25 µM (siRNA assay); 200 mM stated (miRNA assay), 1-2 days before reading
# Read-out: 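Per-well ratio of Renilla over firefly light, expressed relative to that plate's average ratio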
# Hit rule: 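a well was a first-pass pick when its plate-scaled ratio rose above 1.5 (siRNA assay) or 1.6 (miRNA assay), or dropped below 0.6; a gene counted only if two separate dsRNAs agreed on retest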
# In all, the deposit lists about 23,000 reagents; below is a random part of those with a known target gene and a result. Of all reagents, 199 (0.86%) got an active call. 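Plate-scaled ratios behind the calls are not deposited; printed light signals are raw; many rows marked increased or decreased are still called inactive.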 A number with no mark means an inactive call. No sequences are given here. The record does not give: the direction of the score.
target,dsRNA,stable siRNA reporter change,miRNA reporter change,"stable assay Renilla, run 1 (luminescence)","stable assay firefly, run 1 (luminescence)"
eIF2Bdelta (eukaryotic translation initiation factor 2B subunit delta),DRSC04058,,,25721,5.22e5
ric8a,DRSC18093,,,7419,5.96e5
l(2)k01209 (lethal (2) k01209),DRSC06889,,,5598,3.36e5
l(2)k01209 (lethal (2) k01209),DRSC29673,,reporter ratio lowered past the hit cutoff,,
CG2269,DRSC06833,,,8122,4.04e5
Gr98a (Gustatory receptor 98a),DRSC14719,,,4220,4.68e5
dally (division abnormally delayed),DRSC08954,,,4363,3.54e5
dally (division abnormally delayed),DRSC11338,,,8039,5.40e5
Tmep (Transmembrane endosomal protein),DRSC08215,,,9062,2.72e5
CG7271,DRSC22561,,,4471,4.33e5
CG31689,DRSC00734,,,7155,3.98e5
CG14377,DRSC14837,,,8201,4.54e5
CG12911,DRSC06226,,,5860,3.27e5
ppk9 (pickpocket 9),DRSC04134,,,7203,4.40e5
ppk9 (pickpocket 9),DRSC04135,,,6451,3.67e5
MFS10 (Major Facilitator Superfamily Transporter 10),DRSC19888,,,7839,4.53e5
"beta3GalTII (beta-1,3-Galactosyltransferase II)",DRSC07253,,,6646,3.74e5
Ilp3 (Insulin-like peptide 3),DRSC10168,,,5795,3.34e5
mRpL47 (mitochondrial ribosomal protein L47),DRSC16827,,,6315,3.22e5
disp (dispatched),DRSC12376,,,7180,3.58e5
Spf45,DRSC03826,,,7450,3.47e5
CG33144,DRSC06132,,,7966,3.18e5
CG33144,DRSC07024,,,7923,4.78e5
Gr64f (Gustatory receptor 64f),DRSC08447,,,5399,3.16e5
CG15153,DRSC02454,,,6399,3.31e5
S2P (site-2 protease),DRSC07311,,,5007,2.60e5
dpr18 (defective proboscis extension response 18),DRSC19606,,,3947,3.00e5
PCID2 (PCI domain-containing protein 2),DRSC10822,,,11994,5.65e5
CG34227,DRSC06788,,,6119,3.37e5
CG34227,DRSC07034,,,5943,4.23e5
Incenp (Inner centromere protein),DRSC06116,,,13091,1.13e6
Incenp (Inner centromere protein),DRSC21950,,,9721,4.94e5
CG31635,DRSC02273,,,12536,6.97e5
CG31635,DRSC02274,reporter ratio raised past the hit cutoff,,8153,2.60e5

Entries listed so far whose gene name starts with L or l (2):
target,dsRNA,stable siRNA reporter change,miRNA reporter change,"stable assay Renilla, run 1 (luminescence)","stable assay firefly, run 1 (luminescence)"
l(2)k01209 (lethal (2) k01209),DRSC06889,,,5598,3.36e5
l(2)k01209 (lethal (2) k01209),DRSC29673,,reporter ratio lowered past the hit cutoff,,
